Experimental data: PubChem BioAssay AID624297 (National Center for Advancing Translational Sciences (NCATS), 2012)
Among all 340,000 compounds or so, about 6,200 (1.8%) were called active. This list was built around the results that the source calls inconclusive (neither active nor inactive); the mix of calls is not that of the screen. The call rests on the fitted dose curve; in most records, active means well fitted activation curve with a large enough effect; inconclusive means small, poorly fitted or top-dose-only effect; inactive means no such curve, though single readings can be large or run the other way. Where the call is inconclusive, the potency comes from a doubtful curve fit.

test: A quantitative high throughput screen for small molecules that induce DNA re-replication in SW480 colon adenocarcinoma cells.; further: nearly all actives have a fitted effect of over 55% in size; conditions: Hoechst DNA content imaging, 48 h; series mostly up to 46.1 µM
Procedure, shortened: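 250 cells/well; 23 nL cpd via pin tool; 48 hr, 37 C, 5% CO2; Hoechst 40 min; imager read of total nuclear intensity, ex 405/em 500-530 nm.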
Potency means the concentration at half of the fitted maximal effect.

Row | Structure (SMILES) | Potency
1 | COc1ccccc1NS(=O)(=O)c1cccc(NC(=O)Nc2cccc(Cl)c2)c1 | inconclusive: 35.5 µM [activator, single point]
2 | Cc1ccc(S(=O)(=O)CC(=O)Nc2ccc(S(=O)(=O)Nc3onc(C)c3C)cc2)cc1 | active: 10.3 µM
3 | COc1ccccc1N1CCN(CC(=O)c2c[nH]c3ccccc23)CC1 | inactive
4 | COc1ccc(-n2c(=O)[nH]cc(C(=O)Nc3ccccc3)c2=O)cc1 | inconclusive: 16.4 µM [activator, single point]
5 | COC(=O)CSc1cc([N+](=O)[O-])ccc1NC(=O)OC | inconclusive: 29.1 µM [activator, single point]
6 | COc1ccc(N(Cc2cc3ccccc3[nH]c2=O)S(=O)(=O)c2ccc(OC)cc2)cc1 | inconclusive: 29.1 µM [activator, single point]
7 | COC(=O)COc1ccc(S(=O)(=O)NCc2ccc3c(c2)OCO3)cc1C | inconclusive: 18.4 µM [activator, single point]
8 | O=C(Nc1cc(S(=O)(=O)N2CCOCC2)ccc1N1CCOCC1)c1ccc([N+](=O)[O-])s1 | inconclusive: 29.1 µM [activator, single point]
9 | COC(=O)c1cn(C(=O)c2ccc(C)cc2C)c2ccccc12 | active: 8.2 µM
10 | O=C(Nc1ccccn1)C1CCCN1S(=O)(=O)c1ccc(Cl)cc1 (centres undefined) | inconclusive: 29.1 µM [activator, single point]
11 | Cc1ccc(-c2noc(CCC(=O)NCCCN3CCN(c4cccc(Cl)c4)CC3)n2)cc1 | inconclusive: 29.1 µM [activator, single point]
12 | N#CCCn1cc(/C=N/NC(N)=S)c(-c2ccc(-c3ccccc3)cc2)n1 | inconclusive: 23.1 µM [activator, single point]
13 | Cn1c(N)c(C(=O)COC(=O)/C=C/c2ccc(Cl)cc2Cl)c(=O)n(C)c1=O | inconclusive: 29.1 µM [activator, single point]
14 | CCN(CC)CC(C)(C)NS(=O)(=O)c1ccc(Cl)cc1 | inconclusive: 23.1 µM [activator, partial curve, poor fit]
15 | CC(C)(C)OC(=O)N1CCC(c2c(C(=O)NC3CC3)cnn2-c2ccccc2)CC1 | inactive
16 | COc1ccccc1C(=O)Nc1ccccc1SC(=O)c1ccccc1OC | inconclusive: 29.1 µM [activator, single point]
17 | COc1ccc(-c2csc3ncnc(N4CCN(S(=O)(=O)c5cccc(Br)c5)CC4)c23)cc1 | inactive
18 | CCN(CC(=O)NCCc1ccc(F)cc1)Cc1nc2ccccc2c(=O)[nH]1 | inactive
19 | O=S(=O)(NCc1ccc(F)cc1)c1ccc(-n2cnnn2)cc1 | inconclusive: 4.11 µM [activator, full curve, poor fit]
20 | C(/CCc1ccccc1)=N\Nc1nc2ccccc2[nH]1 | inconclusive: 29.1 µM [activator, single point]
21 | CC1=CC(C)(C)n2c(O)c(N=NC(N)=S)c3cccc1c32 | inactive
22 | CCCCn1c(N)c(N(CC(C)C)C(=O)c2cnccn2)c(=O)[nH]c1=O | active: 18.4 µM

Row | Structure (SMILES) | Potency
23 | COc1ccccc1-c1nc2c3ccccc3nc(=S)n2[nH]1 | inactive
24 | Cc1ccc2oc(C(=O)NCC(c3ccco3)N3CCCC3)c(C)c2c1 (centres undefined) | inconclusive: 29.1 µM [activator, single point]
25 | Cc1ccccc1/C=c1\s/c(=C\C(=O)C(C)(C)C)[nH]c1=O | inconclusive: 23.1 µM [activator, single point]
26 | Cc1ccc2nc(-c3ccccc3O)c(Nc3ccc4c(c3)OCCO4)n2c1 | inconclusive: 32.6 µM [activator, partial curve, poor fit]
27 | Nc1nc(SCc2ccc(Br)cc2)[nH]c(=O)c1-c1ccccc1 | inactive
28 | C=C(Cl)COc1ccc2c(CC)cc(=O)oc2c1 | inconclusive: 23.1 µM [activator, partial curve, poor fit]
29 | COc1cc(C(=O)Oc2ccccc2/C=N/NC(=O)c2ccc(C)cc2)cc(OC)c1OC | inconclusive: 6.51 µM [activator, single point]
30 | CCSc1nc2ccccc2c(=O)n1Cc1ccc(F)cc1 | inactive
31 | CCN1CCN(CCC(=O)Nc2ccc(C)cc2)CC1 | inconclusive: 29.1 µM [activator, single point]
32 | O=C(NCCN1CCOCC1)c1cc(-c2ccc(Br)cc2)on1 | inactive
33 | S=C(NCCc1ccc(Cl)cc1)NCc1ccccc1 | inconclusive: 25.9 µM [activator, partial curve, poor fit]
34 | COc1ccc2ccccc2c1/C=N/NC(=O)c1cc(C)[nH]n1 | inactive
35 | CC(C)c1ccc(C2CC(=O)c3cnc(NC(=O)c4ccco4)nc3C2)cc1 (centres undefined) | inconclusive: 0.82 µM [activator, full curve, poor fit]
36 | Cc1ccc2c(c1)C(=O)C(=O)N2CCOc1ccccc1 | active: 4.11 µM
37 | Clc1ccc(-c2cc3ccccc3nc2N2CCOCC2)cc1 | inconclusive: 32.6 µM [activator, partial curve, poor fit]
38 | O=C(NCc1cccnc1)c1ccc(COc2ccccc2Cl)cc1 | inconclusive: 11.6 µM [activator, single point]
39 | COc1cc(C(=O)O/N=C2\C=CC(=O)C=C2C)cc(OC)c1OC | inactive
40 | CNC(=O)NC(=O)C(C)OC(=O)c1c2c(nc3ccccc13)/C(=C/c1cccs1)CC2 (centres undefined) | inconclusive: 0.651 µM [activator, full curve, poor fit]
41 | O=C(c1ccc2noc(-c3ccccc3)c2c1)N1CCN(c2ccccc2)CC1 | inactive
42 | COCC1CCN(C(=O)c2oc3c(F)cccc3c2C)C1 (centres undefined) | inconclusive: 18.4 µM [activator, single point]
43 | CCOCCCNC(=O)/C(C#N)=C/c1ccc(-c2ccc(S(=O)(=O)N3CCOCC3)cc2)o1 | inconclusive: 29.1 µM [activator, single point]
44 | CCOc1ccc(-c2cc(C(=O)NCCCn3ccnc3)c3cc(Br)ccc3n2)cc1 | inconclusive: 29.1 µM [activator, single point]

Sorted by formula weight (falling): 3 of the compounds above.
Row | Structure (SMILES) | Potency
44 | CCOc1ccc(-c2cc(C(=O)NCCCn3ccnc3)c3cc(Br)ccc3n2)cc1 | inconclusive: 29.1 µM [activator, single point]
3 | COc1ccccc1N1CCN(CC(=O)c2c[nH]c3ccccc23)CC1 | inactive
5 | COC(=O)CSc1cc([N+](=O)[O-])ccc1NC(=O)OC | inconclusive: 29.1 µM [activator, single point]
